From article doi:10.1101/2022.02.25.481886
These are yes or no findings as the source states them, for the method shown. In cells and extracts the contact can be indirect. These calls come from enrichment with a bait or labelling near it, and not all partners need be listed. Where a sequence is shown, tags or fusion partners need not be part of it.

Molecular target: T1, VAP27-1 (TAP-tagged bait) (Arabidopsis) (UniProt Q8VZ95)
T1 sequence: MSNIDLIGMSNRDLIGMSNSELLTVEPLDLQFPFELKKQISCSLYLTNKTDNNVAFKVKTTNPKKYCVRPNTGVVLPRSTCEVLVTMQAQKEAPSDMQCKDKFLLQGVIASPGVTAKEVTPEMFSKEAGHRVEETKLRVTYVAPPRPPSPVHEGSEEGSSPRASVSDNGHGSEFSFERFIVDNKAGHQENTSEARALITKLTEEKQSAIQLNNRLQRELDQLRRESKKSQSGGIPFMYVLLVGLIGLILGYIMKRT
Assay: affinity purification with mass spectrometry

Substance: TraB1a (endogenous, Arabidopsis cell culture) (from UniProt F4I8P4)
- binding: binds
